US4123425A, “(2-MeAla^5)-somatostatin and analogues thereof” (American Home Products Corporation, priority 1977, dated 1978)
At least one peptide structure holds a part that was inferred or is arguable (an end, a ring closure or a residue).

Columns and labels:
growth hormone = experiment: Growth hormone by radioimmunoassay in Nembutal-anesthetized, arginine-injected rats; type: in vivo; details: albino male rats
insulin = experiment: Insulin by radioimmunoassay in Nembutal-anesthetized, arginine-injected rats; type: in vivo; details: dose 200 ug/kg subcutaneous, albino male rats, control 205 ± 22

C[C@H](N)C(=O)NCC(=O)N[C@H]1CSSC[C@@H](C(=O)O)NC(=O)[C@H](CO)NC(=O)[C@H]([C@@H](C)O)NC(=O)[C@H](Cc2ccccc2)NC(=O)[C@H]([C@@H](C)O)NC(=O)[C@H](CCCCN)NC(=O)[C@H](Cc2c[nH]c3ccccc23)NC(=O)[C@H](Cc2ccccc2)NC(=O)[C@H](Cc2ccccc2)NC(=O)[C@H](CC(N)=O)NC(=O)[C@H](CCCCN)NC1=O [SRIF, reference compound]
GH (growth hormone; dose 10 ug/kg subcutaneous, second experiment (control 45 ± 11)): 22 ± 5 ng/mL | GH (growth hormone; dose 200 ug/kg subcutaneous, first experiment (control 192 ± 28)): 35 ± 4 ng/mL | Insulin (insulin): 108 ± 10 μU/ml
